± gives the standard deviation of the averaged measurements. The list shows a part of the results, in another mix than the full data. Most entries show no effect beyond the scatter of the controls.
Compound: Nc1ncnc2c1ncn2[C@@H]1O[C@H](COP(=O)(O)OP(=O)(O)OP(=O)(O)O)[C@@H](O)[C@H]1O [adenosine triphosphate]
Test: NP40-soluble protein abundance relative to vehicle (solubility fold change) (ratio); higher = more soluble protein in presence of ATP
Details: concentration: 0.1mM
In short: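 Eight concentrations, 0.1 to 10 mM, were tested on Jurkat crude lysate for 10 min at room temperature and then 3 min at 37 °C, in three independent experiments. The lysate was solubilised with 0.8% NP40 and benzonase, ultracentrifuged, and the supernatant TMT-labelled for LC-MS/MS. Each value is the fold change against the detergent-processed vehicle in its own replicate, from vsn-normalised intensities.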

The chains behind the UniProt entries cited, without tags or fusion partners. Where a name states a change or a piece, a line headed by the entry shows the natural chain unless it says otherwise.
UniProt Q96J84: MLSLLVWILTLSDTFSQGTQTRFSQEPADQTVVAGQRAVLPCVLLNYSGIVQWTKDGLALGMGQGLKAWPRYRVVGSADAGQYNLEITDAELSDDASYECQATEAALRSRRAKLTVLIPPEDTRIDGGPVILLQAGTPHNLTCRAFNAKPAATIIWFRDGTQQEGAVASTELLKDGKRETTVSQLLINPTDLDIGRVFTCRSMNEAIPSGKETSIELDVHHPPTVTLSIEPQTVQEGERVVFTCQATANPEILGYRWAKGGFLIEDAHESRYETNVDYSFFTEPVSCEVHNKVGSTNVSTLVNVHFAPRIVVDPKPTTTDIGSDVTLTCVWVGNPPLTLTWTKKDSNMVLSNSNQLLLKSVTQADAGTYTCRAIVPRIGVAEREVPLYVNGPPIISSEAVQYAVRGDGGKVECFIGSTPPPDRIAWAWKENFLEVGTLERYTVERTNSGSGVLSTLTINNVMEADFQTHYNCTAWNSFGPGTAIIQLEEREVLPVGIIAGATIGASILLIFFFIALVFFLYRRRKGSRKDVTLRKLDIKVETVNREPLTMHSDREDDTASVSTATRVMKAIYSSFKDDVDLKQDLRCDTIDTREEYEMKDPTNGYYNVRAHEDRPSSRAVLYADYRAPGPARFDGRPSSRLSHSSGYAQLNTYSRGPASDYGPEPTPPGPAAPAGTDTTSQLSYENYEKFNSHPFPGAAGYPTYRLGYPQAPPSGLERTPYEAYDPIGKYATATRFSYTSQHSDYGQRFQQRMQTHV
UniProt Q96GX5: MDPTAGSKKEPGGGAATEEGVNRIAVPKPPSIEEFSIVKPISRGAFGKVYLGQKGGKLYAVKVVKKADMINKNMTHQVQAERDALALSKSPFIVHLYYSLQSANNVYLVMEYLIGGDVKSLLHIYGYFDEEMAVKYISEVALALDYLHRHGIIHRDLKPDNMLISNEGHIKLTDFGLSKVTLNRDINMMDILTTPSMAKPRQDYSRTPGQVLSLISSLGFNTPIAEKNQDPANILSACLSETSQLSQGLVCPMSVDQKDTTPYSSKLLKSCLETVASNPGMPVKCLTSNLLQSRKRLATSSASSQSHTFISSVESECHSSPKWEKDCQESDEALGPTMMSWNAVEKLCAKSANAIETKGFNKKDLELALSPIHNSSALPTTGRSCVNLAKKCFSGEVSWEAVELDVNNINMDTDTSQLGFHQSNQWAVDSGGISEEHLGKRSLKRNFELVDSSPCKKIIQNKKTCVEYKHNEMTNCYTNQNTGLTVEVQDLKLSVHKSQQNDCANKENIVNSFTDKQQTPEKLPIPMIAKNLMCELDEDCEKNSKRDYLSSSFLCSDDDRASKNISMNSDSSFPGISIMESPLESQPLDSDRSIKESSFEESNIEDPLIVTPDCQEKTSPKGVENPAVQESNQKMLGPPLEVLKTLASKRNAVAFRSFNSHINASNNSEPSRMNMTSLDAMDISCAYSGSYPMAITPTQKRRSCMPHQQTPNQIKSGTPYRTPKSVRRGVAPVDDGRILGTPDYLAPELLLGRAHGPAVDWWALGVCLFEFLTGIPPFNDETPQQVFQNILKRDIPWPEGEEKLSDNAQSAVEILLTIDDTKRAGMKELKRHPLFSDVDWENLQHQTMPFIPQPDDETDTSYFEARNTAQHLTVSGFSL
UniProt Q96Q42: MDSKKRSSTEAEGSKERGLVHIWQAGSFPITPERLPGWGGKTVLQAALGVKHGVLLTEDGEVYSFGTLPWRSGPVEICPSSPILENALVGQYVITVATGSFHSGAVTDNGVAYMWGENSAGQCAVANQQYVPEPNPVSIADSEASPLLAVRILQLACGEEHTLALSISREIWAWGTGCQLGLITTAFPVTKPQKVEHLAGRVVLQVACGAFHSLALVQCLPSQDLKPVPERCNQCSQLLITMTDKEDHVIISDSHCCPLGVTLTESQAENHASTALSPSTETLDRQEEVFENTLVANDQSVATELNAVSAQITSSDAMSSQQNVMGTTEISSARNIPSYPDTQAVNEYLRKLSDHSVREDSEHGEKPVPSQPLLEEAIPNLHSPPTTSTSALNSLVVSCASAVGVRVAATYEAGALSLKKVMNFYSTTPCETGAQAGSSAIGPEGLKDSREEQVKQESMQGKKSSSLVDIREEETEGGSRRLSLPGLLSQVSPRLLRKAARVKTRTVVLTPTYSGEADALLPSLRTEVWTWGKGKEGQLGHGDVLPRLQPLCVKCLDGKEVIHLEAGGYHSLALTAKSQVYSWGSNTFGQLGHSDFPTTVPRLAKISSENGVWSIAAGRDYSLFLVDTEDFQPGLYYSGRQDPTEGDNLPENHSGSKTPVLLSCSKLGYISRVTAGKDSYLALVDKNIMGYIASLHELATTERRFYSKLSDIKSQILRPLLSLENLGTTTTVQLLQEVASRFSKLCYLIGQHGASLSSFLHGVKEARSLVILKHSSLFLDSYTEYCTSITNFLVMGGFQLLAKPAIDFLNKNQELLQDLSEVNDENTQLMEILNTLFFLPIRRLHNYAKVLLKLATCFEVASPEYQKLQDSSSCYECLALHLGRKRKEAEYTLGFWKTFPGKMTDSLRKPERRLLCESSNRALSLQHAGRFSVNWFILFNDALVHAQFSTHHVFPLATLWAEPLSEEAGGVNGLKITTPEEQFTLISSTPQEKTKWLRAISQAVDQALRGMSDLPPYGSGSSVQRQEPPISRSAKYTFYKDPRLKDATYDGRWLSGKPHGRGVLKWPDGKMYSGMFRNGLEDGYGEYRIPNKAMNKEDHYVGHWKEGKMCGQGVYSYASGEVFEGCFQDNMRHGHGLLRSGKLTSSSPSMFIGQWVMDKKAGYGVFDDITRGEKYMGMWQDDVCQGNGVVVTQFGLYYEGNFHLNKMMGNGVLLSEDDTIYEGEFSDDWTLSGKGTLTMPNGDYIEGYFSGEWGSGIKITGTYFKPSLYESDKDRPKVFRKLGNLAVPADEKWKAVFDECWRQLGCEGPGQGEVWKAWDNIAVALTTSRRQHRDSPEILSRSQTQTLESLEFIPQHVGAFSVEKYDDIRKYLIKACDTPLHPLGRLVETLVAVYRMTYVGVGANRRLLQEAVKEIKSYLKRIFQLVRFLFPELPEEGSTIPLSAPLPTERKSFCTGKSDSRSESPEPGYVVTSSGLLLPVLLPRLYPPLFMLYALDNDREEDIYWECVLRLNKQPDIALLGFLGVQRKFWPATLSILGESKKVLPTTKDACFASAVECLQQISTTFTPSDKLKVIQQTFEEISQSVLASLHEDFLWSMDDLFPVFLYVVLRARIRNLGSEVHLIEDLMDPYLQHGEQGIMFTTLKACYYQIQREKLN
UniProt Q96HR9: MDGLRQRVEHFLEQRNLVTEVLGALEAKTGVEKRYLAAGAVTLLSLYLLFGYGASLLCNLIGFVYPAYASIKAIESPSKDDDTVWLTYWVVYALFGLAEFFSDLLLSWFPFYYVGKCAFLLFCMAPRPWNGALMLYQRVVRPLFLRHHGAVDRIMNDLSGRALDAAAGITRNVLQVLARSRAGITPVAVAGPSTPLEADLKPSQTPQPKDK
UniProt Q96BQ5: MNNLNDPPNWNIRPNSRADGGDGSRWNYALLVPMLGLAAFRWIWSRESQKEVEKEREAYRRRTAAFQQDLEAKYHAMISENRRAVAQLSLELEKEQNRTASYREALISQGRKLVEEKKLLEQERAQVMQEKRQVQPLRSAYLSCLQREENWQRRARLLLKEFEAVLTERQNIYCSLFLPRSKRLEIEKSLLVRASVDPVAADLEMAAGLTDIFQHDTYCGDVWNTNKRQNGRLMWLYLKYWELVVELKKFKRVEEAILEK
UniProt Q96HY7: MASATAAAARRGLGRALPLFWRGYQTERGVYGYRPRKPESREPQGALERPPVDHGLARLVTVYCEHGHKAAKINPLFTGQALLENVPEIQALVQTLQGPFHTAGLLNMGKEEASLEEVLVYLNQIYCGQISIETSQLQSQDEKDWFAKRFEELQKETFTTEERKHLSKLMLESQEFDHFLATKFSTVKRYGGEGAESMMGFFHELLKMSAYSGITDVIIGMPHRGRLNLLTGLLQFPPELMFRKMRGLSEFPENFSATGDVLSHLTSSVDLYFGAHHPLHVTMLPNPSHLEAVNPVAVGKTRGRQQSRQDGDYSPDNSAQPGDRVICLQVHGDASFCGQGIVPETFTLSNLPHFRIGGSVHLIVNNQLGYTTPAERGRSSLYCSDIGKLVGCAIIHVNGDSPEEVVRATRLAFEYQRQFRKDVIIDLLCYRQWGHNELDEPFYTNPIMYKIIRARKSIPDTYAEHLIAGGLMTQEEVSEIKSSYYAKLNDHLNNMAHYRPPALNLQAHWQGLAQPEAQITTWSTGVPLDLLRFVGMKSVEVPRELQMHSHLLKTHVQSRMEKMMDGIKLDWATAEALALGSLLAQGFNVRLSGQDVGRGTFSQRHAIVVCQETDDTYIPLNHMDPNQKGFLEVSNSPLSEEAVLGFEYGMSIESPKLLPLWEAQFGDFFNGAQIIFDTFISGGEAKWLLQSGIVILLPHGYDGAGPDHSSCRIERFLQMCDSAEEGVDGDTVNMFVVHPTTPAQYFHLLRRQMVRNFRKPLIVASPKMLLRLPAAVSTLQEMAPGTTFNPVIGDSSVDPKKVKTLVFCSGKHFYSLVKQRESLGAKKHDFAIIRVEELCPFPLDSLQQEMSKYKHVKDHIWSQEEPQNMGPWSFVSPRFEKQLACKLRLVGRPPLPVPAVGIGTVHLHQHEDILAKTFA
UniProt Q96CX2: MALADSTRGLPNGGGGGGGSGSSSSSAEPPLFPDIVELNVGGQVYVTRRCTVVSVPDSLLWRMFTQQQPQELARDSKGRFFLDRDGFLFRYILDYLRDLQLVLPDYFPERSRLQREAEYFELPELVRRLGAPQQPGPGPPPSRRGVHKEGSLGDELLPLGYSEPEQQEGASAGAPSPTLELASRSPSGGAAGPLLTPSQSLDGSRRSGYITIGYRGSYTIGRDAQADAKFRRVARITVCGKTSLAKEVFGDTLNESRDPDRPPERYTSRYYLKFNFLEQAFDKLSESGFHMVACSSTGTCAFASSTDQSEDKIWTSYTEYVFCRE
UniProt Q96KA5: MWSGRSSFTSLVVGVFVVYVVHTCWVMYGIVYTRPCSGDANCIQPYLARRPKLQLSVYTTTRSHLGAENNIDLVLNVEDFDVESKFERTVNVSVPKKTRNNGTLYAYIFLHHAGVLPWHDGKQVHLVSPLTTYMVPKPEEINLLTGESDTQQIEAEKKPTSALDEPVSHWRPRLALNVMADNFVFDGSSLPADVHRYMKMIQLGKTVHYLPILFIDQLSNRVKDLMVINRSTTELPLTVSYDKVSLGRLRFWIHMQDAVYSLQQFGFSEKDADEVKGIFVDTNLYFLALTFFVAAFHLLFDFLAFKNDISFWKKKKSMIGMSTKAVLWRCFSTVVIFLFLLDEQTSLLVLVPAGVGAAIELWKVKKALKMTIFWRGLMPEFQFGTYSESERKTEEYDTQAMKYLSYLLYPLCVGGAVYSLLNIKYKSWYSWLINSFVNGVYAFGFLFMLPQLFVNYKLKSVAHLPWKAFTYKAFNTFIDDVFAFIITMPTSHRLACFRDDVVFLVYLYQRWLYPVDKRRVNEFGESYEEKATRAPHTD
UniProt Q96EY8: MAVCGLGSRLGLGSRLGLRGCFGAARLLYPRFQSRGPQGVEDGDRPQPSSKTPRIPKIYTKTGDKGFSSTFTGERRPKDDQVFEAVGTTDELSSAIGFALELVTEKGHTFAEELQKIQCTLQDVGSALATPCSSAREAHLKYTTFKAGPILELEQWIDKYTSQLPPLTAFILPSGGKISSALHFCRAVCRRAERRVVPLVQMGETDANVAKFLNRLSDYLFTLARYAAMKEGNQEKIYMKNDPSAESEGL
UniProt Q96GS4: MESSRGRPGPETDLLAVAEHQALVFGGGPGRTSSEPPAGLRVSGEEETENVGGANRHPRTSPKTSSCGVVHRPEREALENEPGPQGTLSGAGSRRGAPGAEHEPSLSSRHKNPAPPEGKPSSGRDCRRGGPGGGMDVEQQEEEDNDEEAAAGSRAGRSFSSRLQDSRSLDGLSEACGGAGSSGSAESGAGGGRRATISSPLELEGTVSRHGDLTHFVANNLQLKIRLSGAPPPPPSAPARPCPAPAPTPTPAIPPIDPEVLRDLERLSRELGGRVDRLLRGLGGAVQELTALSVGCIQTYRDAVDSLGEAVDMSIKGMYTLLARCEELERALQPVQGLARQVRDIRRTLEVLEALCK
UniProt Q96E29: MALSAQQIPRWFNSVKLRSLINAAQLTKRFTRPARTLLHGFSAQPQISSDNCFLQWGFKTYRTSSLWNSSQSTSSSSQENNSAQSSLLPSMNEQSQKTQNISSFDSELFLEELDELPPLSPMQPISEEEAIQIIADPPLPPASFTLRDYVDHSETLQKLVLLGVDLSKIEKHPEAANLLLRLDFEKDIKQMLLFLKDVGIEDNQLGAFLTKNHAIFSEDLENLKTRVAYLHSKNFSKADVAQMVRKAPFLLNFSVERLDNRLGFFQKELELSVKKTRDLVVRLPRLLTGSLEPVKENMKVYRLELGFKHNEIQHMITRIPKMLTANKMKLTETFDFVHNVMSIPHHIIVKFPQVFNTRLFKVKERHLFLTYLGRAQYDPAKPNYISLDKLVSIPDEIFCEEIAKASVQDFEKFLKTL

Target	NP40-soluble protein abundance
UniProt Q96S19 and related entries	1.03 ± 0.04
UniProt Q96T37-3|A0A087WWP4|Q96T37 and related entries	1.02 ± 0.044
RSPRY1 (UniProt Q96DX4)	1.05 ± 0.062
UniProt Q96G28	0.961 ± 0.034
GCC1 (UniProt Q96CN9)	0.987 ± 0.027
UniProt Q96J84 and related entries	0.971 ± 0.02
UniProt Q96GY0	0.924 ± 0.069
UniProt Q96GX5 and related entries	1.02 ± 0.05
GNPNAT1 (UniProt Q96EK6)	1.04 ± 0.076
DDRGK1 (UniProt Q96HY6)	0.941 ± 0.09
UniProt Q96Q42 and related entries	1.31 ± 0.17
RUFY1 (UniProt Q96T51)	1.01 ± 0.036
UniProt Q96SB3 and related entries	0.867 ± 0.08
UniProt Q96P47 and related entries	0.985 ± 0.056
REEP6 (UniProt Q96HR9)	0.931 ± 0.11
LIN37 (UniProt Q96GY3)	0.933 ± 0.083
DUS3L (UniProt Q96G46)	1.05 ± 0.044
LRRC58 (UniProt Q96CX6)	0.961 ± 0.018
CCDC127 (UniProt Q96BQ5)	0.861 ± 0.14

Reprinted from the results shown (2 entries):
Target	NP40-soluble protein abundance
GCC1 (UniProt Q96CN9)	0.987 ± 0.027
UniProt Q96J84 and related entries	0.971 ± 0.02

Next entries

Target	NP40-soluble protein abundance
MARS2 (UniProt Q96GW9)	1.02 ± 0.071
UniProt Q96L92 and related entries	1.03 ± 0.069
DHTKD1 (UniProt Q96HY7)	1.13 ± 0.094
PRMT6 (UniProt Q96LA8)	1.01 ± 0.086
UniProt Q96G23	0.983 ± 0.017
KCTD12 (UniProt Q96CX2)	1.03 ± 0.093
UniProt Q96KA5 and related entries	1 ± 0.047
NUDCD1 (UniProt Q96RS6)	1.06 ± 0.087
MMAB (UniProt Q96EY8)	0.991 ± 0.028
UHRF2 (UniProt Q96PU4)	1.04 ± 0.041
FBXL8 (UniProt Q96CD0)	1.01 ± 0.07
UniProt Q96GS4	0.951 ± 0.011
UniProt Q96IJ6 and related entries	1.06 ± 0.049
CCDC97 (UniProt Q96F63)	0.958 ± 0.065
PANX1 (UniProt Q96RD7)	1.01 ± 0.054
UniProt Q96E29 and related entries	1.06 ± 0.094
UniProt Q96MG7	1 ± 0.095
MRPL53 (UniProt Q96EL3)	0.886 ± 0.17
UniProt Q96KQ4	1 ± 0.035
